No constants are given. Whether binding was seen depends on the method and setting. Binding seen in cells or lysates may run through a third protein. A yes stands for co-enrichment or nearness to the bait. Other partners may have been found.
Tests used:
[1] = target: Polypyrimidine Tract Binding Protein 1, His-tagged, P26599; test: affinity purification with mass spectrometry; 48 ug His-tagged PTBP in a 200 ul splicing reaction (2.2 mM MgCl2, 0.4 mM ATP, 20 mM creatine phosphate) with WERI retinoblastoma nuclear extract, 30 C 90 min; HisPur Ni-NTA magnetic resin overnight at 4 C; washes with 150 mM NaCl, 30 mM imidazole; eluted with 300 mM imidazole; proteins of the Buffer DG and WERI only controls removed from the lists; the extract includes …; conditions: remark: other sources report otherwise
[2] = target: Polypyrimidine Tract Binding Protein 1, His-tagged (UniProt P26599); test: affinity purification with mass spectrometry; 48 ug His-tagged PTBP in a 200 ul splicing reaction (2.2 mM MgCl2, 0.4 mM ATP, 20 mM creatine phosphate) with WERI retinoblastoma nuclear extract, 30 C 90 min; HisPur Ni-NTA magnetic resin overnight at 4 C; washes with 150 mM NaCl, 30 mM imidazole; eluted with 300 mM imidazole; proteins of the Buffer DG and WERI only controls removed from the lists; the extract includes RNA transcripts, so a protein may be bound directly or through RNA; only the target purified

The chains behind the UniProt entries cited, without tags or fusion partners.
UniProt P26599: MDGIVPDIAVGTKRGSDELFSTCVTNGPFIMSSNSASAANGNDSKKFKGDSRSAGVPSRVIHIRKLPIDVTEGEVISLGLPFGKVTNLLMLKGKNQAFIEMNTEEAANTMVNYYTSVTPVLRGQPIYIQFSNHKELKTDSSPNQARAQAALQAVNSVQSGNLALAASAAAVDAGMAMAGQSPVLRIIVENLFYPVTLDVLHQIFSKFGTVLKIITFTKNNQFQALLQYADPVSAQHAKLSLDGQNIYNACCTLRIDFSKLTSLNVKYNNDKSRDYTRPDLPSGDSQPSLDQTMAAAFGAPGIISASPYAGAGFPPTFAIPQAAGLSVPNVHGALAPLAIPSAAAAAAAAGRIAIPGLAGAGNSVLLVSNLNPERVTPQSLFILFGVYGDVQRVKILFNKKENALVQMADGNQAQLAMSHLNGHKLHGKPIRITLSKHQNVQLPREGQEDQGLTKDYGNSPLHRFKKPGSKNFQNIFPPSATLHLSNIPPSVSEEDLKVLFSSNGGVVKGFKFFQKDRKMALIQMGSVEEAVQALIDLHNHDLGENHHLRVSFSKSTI

Binder | binding [1] | binding [2]
MEIS2 (protein, UniProt O14770 1-477) MAQRYDELPHYGGMDGVGVPASMYGDPHAPRPIPPVHHLNHGPPLHATQHYGAHAPHPNVMPASMGSAVNDALKRDKDAIYGHPLFPLLALVFEKCELATCTPREPGVAGGDVCSSDSFNEDIAVFAKQVRAEKPLFSSNPELDNLMIQAIQVLRFHLLELEKVHELCDNFCHRYISCLKGKMPIDLVIDERDGSSKSDHEELSGSSTNLADHNPSSWRDHDDATSTHSAGTPGPSSGGHASQSGDNSSEQGDGLDNSVASPGTGDDDDPDKDKKRQKKRGIFPKVATNIMRAWLFQHLTHPYPSEEQKKQLAQDTGLTILQVNNWFINARRRIVQPMIDQSNRAGFLLDPSVSQGAAYSPEGQPMGSFVLDGQQHMGIRPAGLQSMPGDYVSQGGPMGMSMAQPSYTPPQMTPHPTQLRHGPPMHSYLPSHPHHPAMMMHGGPPTHPGMTMSAQSPTMLNSVDPNVGGQVMDIHAQ | – | binds
NONO (protein, UniProt Q15233 1-471) MQSNKTFNLEKQNHTPRKHHQHHHQQQHHQQQQQQPPPPPIPANGQQASSQNEGLTIDLKNFRKPGEKTFTQRSRLFVGNLPPDITEEEMRKLFEKYGKAGEVFIHKDKGFGFIRLETRTLAEIAKVELDNMPLRGKQLRVRFACHSASLTVRNLPQYVSNELLEEAFSVFGQVERAVVIVDDRGRPSGKGIVEFSGKPAARKALDRCSEGSFLLTTFPRPVTVEPMDQLDDEEGLPEKLVIKNQQFHKEREQPPRFAQPGSFEYEYAMRWKALIEMEKQQQDQVDRNIKEAREKLEMEMEAARHEHQVMLMRQDLMRRQEELRRMEELHNQEVQKRKQLELRQEEERRRREEEMRRQQEEMMRRQQEGFKGTFPDAREQEIRMGQMAMGGAMGINNRGAMPPAPVPAGTPAPPGPATMMPDGTLGLTPPTTERFGQAATMEGIGAIGGTPPAFNRAAPGAEFAPNKRRRY | – | binds

The next lines start with the values.

binding [1] | binding [2] | Binder
binds | – | splicing factor hnRNPLL, Q8WVV9 1-542 (protein) MSSSSSSPRETYEEDREYESQAKRLKTEEGEIDYSAEEGENRREATPRGGGDGGGGGRSFSQPEAGGSHHKVSVSPVVHVRGLCESVVEADLVEALEKFGTICYVMMMPFKRQALVEFENIDSAKECVTFAADEPVYIAGQQAFFNYSTSKRITRPGNTDDPSGGNKVLLLSIQNPLYPITVDVLYTVCNPVGKVQRIVIFKRNGIQAMVEFESVLCAQKAKAALNGADIYAGCCTLKIEYARPTRLNVIRNDNDSWDYTKPYLGRRDRGKGRQRQAILGEHPSSFRHDGYGSHGPLLPLPSRYRMGSRDTPELVAYPLPQASSSYMHGGNPSGSVVMVSGLHQLKMNCSRVFNLFCLYGNIEKVKFMKTIPGTALVEMGDEYAVERAVTHLNNVKLFGKRLNVCVSKQHSVVPSQIFELEDGTSSYKDFAMSKNNRFTSAGQASKNIIQPPSCVLHYYNVPLCVTEETFTKLCNDHEVLTFIKYKVFDAKPSAKTLSGLLEWECKTDAVEALTALNHYQIRVPNGSNPYTLKLCFSTSSHL
– | binds | transcriptional regulatory factor TRIM29 (protein, UniProt Q14134 1-588) MEAADASRSNGSSPEARDARSPSGPSGSLENGTKADGKDAKTTNGHGGEAAEGKSLGSALKPGEGRSALFAGNEWRRPIIQFVESGDDKNSNYFSMDSMEGKRSPYAGLQLGAAKKPPVTFAEKGELRKSIFSESRKPTVSIMEPGETRRNSYPRADTGLFSRSKSGSEEVLCDSCIGNKQKAVKSCLVCQASFCELHLKPHLEGAAFRDHQLLEPIRDFEARKCPVHGKTMELFCQTDQTCICYLCMFQEHKNHSTVTVEEAKAEKETELSLQKEQLQLKIIEIEDEAEKWQKEKDRIKSFTTNEKAILEQNFRDLVRDLEKQKEEVRAALEQREQDAVDQVKVIMDALDERAKVLHEDKQTREQLHSISDSVLFLQEFGALMSNYSLPPPLPTYHVLLEGEGLGQSLGNFKDDLLNVCMRHVEKMCKADLSRNFIERNHMENGGDHRYVNNYTNSFGGEWSAPDTMKRYSMYLTPKGGVRTSYQPSSPGRFTKETTQKNFNNLYGTKGNYTSRVWEYSSSIQNSDNDLPVVQGSSSFSLKGYPSLMRSQSPKAQPQTWKSGKQTMLSHYRPFYVNKGNGIGSNEAP
